Reference: PubChem BioAssay AID1159584 (Peter MacCallum Cancer Centre, 2016)

Assay: 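Knock-downs that harm CDH1-null cells more than parental MCF10A cells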 (primary screen)
Cells: human MCF10A breast epithelial cells, parental and CDH1-null
Reagents: siRNA against human genes
Measured: 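Cell viability by CellTiter-Glo ATP luminescence, each line scaled to the mean of mock wells across plates, then CDH1-null over parental ratio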
Direction: CDH1-null / parental viability ratio: higher = CDH1-null cells survive relatively better than parental
Shown is a random part of about 18,000 reagents tested. Further read-outs or replicates are left out here. Not given: the amount of reagent, the time to read-out.

NR1H2 showed CDH1-null / parental viability ratio 2.97.
Silencing of NPB gave: CDH1-null / parental viability ratio 0.92.
UGT1A1 showed CDH1-null / parental viability ratio 0.95.
With knock-down of INSRR, the record shows CDH1-null / parental viability ratio 1.
CAPS2 gave CDH1-null / parental viability ratio 0.89.
CEP97 scored CDH1-null / parental viability ratio 1.05.
Knock-down of RBM17 gave: CDH1-null / parental viability ratio 1.42.
After knock-down of CD164, the record shows CDH1-null / parental viability ratio 1.02.
For DCAF4L1, the values are CDH1-null / parental viability ratio 0.99.
Depletion of SP140 came out at: CDH1-null / parental viability ratio 1.04.
With knock-down of UQCRQ, the record shows CDH1-null / parental viability ratio 0.67.
ZNF548 showed CDH1-null / parental viability ratio 0.69.
Knock-down of APTX gave: CDH1-null / parental viability ratio 1.08.
With knock-down of FCGR3B, the record shows CDH1-null / parental viability ratio 0.7.
With knock-down of KAT7, the screen gave CDH1-null / parental viability ratio 1.47.
After knock-down of RWDD2A the results were CDH1-null / parental viability ratio 1.97.
With knock-down of EPB41, the record shows CDH1-null / parental viability ratio 1.03.
Against ENTPD3 the deposit lists CDH1-null / parental viability ratio 0.62.
After knock-down of CKMT2 the results were CDH1-null / parental viability ratio 1.28.
Against EEF2K the deposit lists CDH1-null / parental viability ratio 0.79.
CDKN2D scored CDH1-null / parental viability ratio 0.96.
For ASH1L, the values are CDH1-null / parental viability ratio 1.14.
Silencing of PLEKHA8 resulted in: CDH1-null / parental viability ratio 0.94.
Silencing of AGAP7P gave: CDH1-null / parental viability ratio 0.64.
For ZNF576, the entry reads CDH1-null / parental viability ratio 1.28.
After knock-down of ANTXR1 the results were CDH1-null / parental viability ratio 0.82.
With knock-down of LY6K, the screen gave CDH1-null / parental viability ratio 0.89.
Knock-down of GLI3 gave: CDH1-null / parental viability ratio 0.83.
Silencing of RAP1GDS1 resulted in: CDH1-null / parental viability ratio 0.79.
With knock-down of SSRP1 the results were CDH1-null / parental viability ratio 1.22.
With knock-down of CXCL17, the screen gave CDH1-null / parental viability ratio 0.81.
After knock-down of EREG the results were CDH1-null / parental viability ratio 0.73.
With knock-down of CA9, the screen gave CDH1-null / parental viability ratio 1.02.
For LCE2A, the values are CDH1-null / parental viability ratio 0.85.
For CCDC198 the deposit lists CDH1-null / parental viability ratio 0.67.
Depletion of KIF18B gave: CDH1-null / parental viability ratio 1.21.
LILRB4 gave CDH1-null / parental viability ratio 0.98.
With knock-down of BMF, the record shows CDH1-null / parental viability ratio 0.97.
PHOX2A gave CDH1-null / parental viability ratio 1.22.
For ADAMTS2, the values are CDH1-null / parental viability ratio 1.24.
Depletion of SMARCA1 gave: CDH1-null / parental viability ratio 1.01.
With knock-down of ZNF230, the record shows CDH1-null / parental viability ratio 0.95.
Knock-down of DEFB115 came out at: CDH1-null / parental viability ratio 0.86.
For PPP2R1A, the entry reads CDH1-null / parental viability ratio 1.42.
After knock-down of SMAD9 the results were CDH1-null / parental viability ratio 0.95.

Copied from the listing (3 entries):
NR1H2 | CDH1-null / parental viability ratio: 2.97
NPB | CDH1-null / parental viability ratio: 0.92
UGT1A1 | CDH1-null / parental viability ratio: 0.95
